These are yes or no findings as the source states them, for the method shown. For some assays here: Binding seen in cells or lysates may run through a third protein. Some results given as binding are weak or reduced against the parent protein; the word gives no strength. For some assays here: Tags and fused reporters may be left off the sequences shown.
Experiments:
[1] = molecular target: T1, OsNEK6 full length in pGBKT7 (bait) (rice (Oryza sativa)) (UniProt Q6YY75); test: two-hybrid; pairwise co-transformation of pGADT7 and pGBKT7 constructs into yeast strain Y2H Gold; SD/-Trp/-Leu, then SD/-Ade/-His/-Trp/-Leu/X-alpha-Gal plates for 3-5 days
T1 sequence: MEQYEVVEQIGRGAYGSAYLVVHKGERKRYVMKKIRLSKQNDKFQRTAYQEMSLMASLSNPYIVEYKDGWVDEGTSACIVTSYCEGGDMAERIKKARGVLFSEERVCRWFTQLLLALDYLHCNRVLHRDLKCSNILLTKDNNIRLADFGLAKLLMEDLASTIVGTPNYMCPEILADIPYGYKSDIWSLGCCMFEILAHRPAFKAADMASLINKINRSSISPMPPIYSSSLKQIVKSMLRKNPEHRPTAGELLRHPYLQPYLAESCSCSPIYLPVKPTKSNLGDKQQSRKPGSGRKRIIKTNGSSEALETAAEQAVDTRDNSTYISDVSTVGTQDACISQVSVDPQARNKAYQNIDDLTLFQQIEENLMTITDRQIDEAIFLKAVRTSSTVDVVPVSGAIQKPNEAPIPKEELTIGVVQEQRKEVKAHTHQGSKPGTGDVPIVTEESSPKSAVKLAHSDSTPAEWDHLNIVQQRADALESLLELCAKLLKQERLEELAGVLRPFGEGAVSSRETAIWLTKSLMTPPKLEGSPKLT

[2] = molecular target: T2, OsNEK6-cYFP (rice (Oryza sativa)) (UniProt Q6YY75); test: split reporter; BiFC; pSAT6-NYFP and pSAT6-CYFP constructs transiently expressed in rice protoplasts via PEG transformation for 2 days; confocal microscopy
T2 sequence: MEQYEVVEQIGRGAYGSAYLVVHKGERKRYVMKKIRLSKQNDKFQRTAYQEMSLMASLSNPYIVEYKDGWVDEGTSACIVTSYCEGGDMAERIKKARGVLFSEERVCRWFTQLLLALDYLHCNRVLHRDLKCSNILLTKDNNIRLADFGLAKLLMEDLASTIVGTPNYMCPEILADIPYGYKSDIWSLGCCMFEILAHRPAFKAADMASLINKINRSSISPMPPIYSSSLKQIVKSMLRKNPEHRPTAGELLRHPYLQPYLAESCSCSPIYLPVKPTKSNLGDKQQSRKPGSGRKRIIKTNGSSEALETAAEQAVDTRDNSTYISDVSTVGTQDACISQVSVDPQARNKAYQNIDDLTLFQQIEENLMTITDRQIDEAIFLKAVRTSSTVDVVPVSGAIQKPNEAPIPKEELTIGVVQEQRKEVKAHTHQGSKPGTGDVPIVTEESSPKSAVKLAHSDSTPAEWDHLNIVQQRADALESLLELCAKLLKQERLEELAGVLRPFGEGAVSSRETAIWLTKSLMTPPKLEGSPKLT

Row | Binder | binding [1] | binding [2]
1 | OsDi19-3 full length in pGADT7 (prey) (protein, UniProt Q5QMP3 1-246) MDSEHWISSLAAAKRFYAAQLGHVDDMAGIGMEEVEMEMEDDGEGMELELEMQLEEATWPDVACPYCYEDHDIASLCAHLEEDHPYEPHTSPCPICFEKITRDMLNHITMQHGYLFKSGRRMRRFDIPESQALSLLSRDLRDAQLQALLGGGHRQRRSNTTATNISADPLLSSFGLGFSTLDSEERSKAPVPIPDDTSIHKDTPAQPWESRIDSSLTSEEREQKRKQATDRATFVQGLVLSTLFED | binds | –
2 | OsDi19-nYFP (protein, UniProt Q5QMP3 1-246) MDSEHWISSLAAAKRFYAAQLGHVDDMAGIGMEEVEMEMEDDGEGMELELEMQLEEATWPDVACPYCYEDHDIASLCAHLEEDHPYEPHTSPCPICFEKITRDMLNHITMQHGYLFKSGRRMRRFDIPESQALSLLSRDLRDAQLQALLGGGHRQRRSNTTATNISADPLLSSFGLGFSTLDSEERSKAPVPIPDDTSIHKDTPAQPWESRIDSSLTSEEREQKRKQATDRATFVQGLVLSTLFED | – | binds

From article PMC12115221
